From PubChem BioAssay AID2685 (National Center for Advancing Translational Sciences (NCATS), 2010)
The list shows a part of the results. These are further read-outs of the screen, such as a control signal, another cell line or another target. No call is given for them. Compounds called inactive in the main read-out are mostly missing here. The note in brackets gives the kind of curve behind each potency; many fits are weak.

Assay: qHTS Assay for Lipid Storage Modulators in Drosophila S3 Cells;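 on cell number change: cells counted by Cell Tracker Red CMTPX staining in the red channel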
Settings: BODIPY lipid droplet fluorescence, 18-24 h; for cell number change: measured here: cell count max response, cells fed with added oleic acid
Method in brief: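 Drosophila S3 cells loaded with oleic acid (400 uM, as added) and compounds at several concentrations; lipid droplets imaged by 488-nm laser-scanning cytometry, 500–530 nm intensity and object ratio to cell channel. Percent activity normalized to 20 uM Triacsin C.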

[1] = measured here: cell number channel AC50, cells fed with added oleic acid
[2] = measured here: lipid fluorescence (Fed channel) AC50, cells fed with added oleic acid

SMILES	cell number change	AC50 [1]	AC50 [2]
COc1ccc(OC)c(NC(=O)CN2C(=O)c3ccccc3S2(=O)=O)c1	43.7%	3.66 µM [rising, partial curve, poor fit]	
CCOc1ccc(N(CC(=O)NCc2cccc(OC)c2)S(=O)(=O)c2c(C)noc2C)cc1			0.58 µM [falling, single point]
Cc1nnc(SCC(=O)Nc2nc(C(C)(C)C)cs2)s1	-45.9%	0.82 µM [falling, full curve, poor fit]	1.16 µM [falling, full curve]
C/C(N)=C(/C#N)C(=O)COC(=O)Cc1coc2cc(C)ccc12	-8.14%	0.731 µM [rising, single point]	
CCCC(=O)Nc1cccc(C(=O)Nc2nccs2)c1	30.3%	0.00411 µM [rising, full curve, poor fit]	
Cc1c(C(c2cccc(Br)c2)c2c(C)n(C)n(-c3ccccc3)c2=O)c(=O)n(-c2ccccc2)n1C	-33.2%	4.61 µM [falling, full curve, poor fit]	
CCN1C(=O)[C@H]2[C@@H](c3ccc(C)cc3)N3C(=O)N(c4cccc(Cl)c4)C(=O)[C@@]3(Cc3ccccc3)[C@H]2C1=O	15.2%		20.6 µM [rising, single point]
COc1ccc(CNc2nc3c(c(=O)[nH]c(=O)n3C)n2Cc2ccccc2)cc1	43.2%	0.00411 µM [rising, full curve, poor fit]	6.51 µM [falling, single point]
C/C(=N/NC(=O)c1ccncc1)c1cc2ccc(O)cc2oc1=O	-0.264%		29.1 µM [falling, single point]
CCOC(=O)N1CCC(=NNC(N)=O)CC1	-42.3%	3.26 µM [falling, full curve]	3.26 µM [falling, full curve]
Cc1cc(=O)n2nc(N3CCCC(C(=O)NC4CCCCC4C)C3)sc2n1 (stereo not drawn)	-3.98%		
O=C(Nc1ccc(S(=O)(=O)NCc2ccco2)cc1)C1CCCCC1	-15.2%		16.4 µM [falling, single point]
C/C(=N\Nc1nc2ccccc2s1)c1cccs1	11.9%		
Cc1cc([N+](=O)[O-])cc2ncccc12	39.7%	13 µM [rising, partial curve]	0.411 µM [rising, partial curve, poor fit]
O=C(OCCCN=C1NS(=O)(=O)c2ccccc21)c1ccccc1	-18.2%		29.1 µM [falling, single point]
COc1ccc(S(=O)(=O)Nc2ccc3ccccc3c2)cc1C	-34.3%	18.4 µM [falling, single point]	6.51 µM [rising, partial curve, poor fit]
Cc1ccc(C(C)C)c(OCc2nc(-c3nonc3N)no2)c1	-33.6%	32.6 µM [falling, single point]	29.1 µM [falling, single point]
CCCN(CC1CCCO1)C(=O)c1cc(COc2ccc(F)cc2F)on1 (stereo not drawn)		1.64 µM [falling, full curve, poor fit]	

Compounds shown so far that have two or more sulfur atoms:
SMILES	cell number change	AC50 [1]	AC50 [2]
Cc1nnc(SCC(=O)Nc2nc(C(C)(C)C)cs2)s1	-45.9%	0.82 µM [falling, full curve, poor fit]	1.16 µM [falling, full curve]
C/C(=N\Nc1nc2ccccc2s1)c1cccs1	11.9%		

Following part:

SMILES	cell number change	AC50 [1]	AC50 [2]
COCCNC(=O)Nc1ccc2c(c1)N(C)C(=O)CS2	3.43%		
CCN(CC)c1nc(C#N)nc(N(CC)CC)n1	1.23%		0.00517 µM [falling, full curve, poor fit]
COc1ccc(N=C2S/C(=C\c3ccc(C)o3)C(=O)N2CC(C)C)cc1	0.0921%	0.146 µM [rising, full curve, poor fit]	
Cn1c(NCCCO)nc2c1c(=O)n(Cc1ccccc1F)c(=O)n2C			6.51 µM [falling, single point]
O=c1c2cnn(-c3ccccc3Cl)c2ncn1Cc1cccnc1	57.8%	11.6 µM [rising, partial curve]	0.231 µM [falling, full curve, poor fit]
COc1ccc(C(=O)CC(SCC(NC(C)=O)C(=O)O)c2ccc(Cl)cc2)cc1OC (stereo not drawn)	-28.7%		18.4 µM [falling, single point]
COc1ccc(NC(=O)CN(C)C(=O)CCc2nc3cc(S(=O)(=O)N4CCOCC4)ccc3n2C)cc1		2.59 µM [rising, partial curve]	1.84 µM [rising, partial curve]
CCc1ccc(NC(=O)C2CC=CCC2C(=O)O)cc1 (stereo not drawn)	-2.78%		3.66 µM [falling, single point]
O=C(Cn1cc2c(n1)CCCC2)NCCCN1CCN(c2ccccc2F)CC1			0.231 µM [rising, partial curve]
CCN(C(=O)COn1nnc2ccc(S(=O)(=O)N(C)C)cc21)C1CCS(=O)(=O)C1 (stereo not drawn)	-4.45%	0.058 µM [falling, full curve, poor fit]	
N#C/C(=C(/O)CSc1nnc(Cc2cccs2)n1C1CCCCC1)c1nc2ccccc2[nH]1	-6.14%		2.06 µM [rising, partial curve]
Cc1ccc(NC(=O)CSCC(=O)Nc2cccc(S(=O)(=O)N3CCCCCC3)c2)cc1	-21%		29.1 µM [falling, single point]
CCn1c(SCC(O)c2ccccc2)nnc1-c1ccccc1 (stereo not drawn)	4.9%	0.731 µM [falling, single point]	10.3 µM [rising, partial curve, poor fit]
COc1ccc(S(=O)(=O)N(CC(=O)NC2CC2)c2ccc(C)cc2)cc1OC	9.77%		29.1 µM [rising, single point]
C/C(=N/NC(=O)CSc1nc2ccccc2n1C)c1ccncc1	34.2%	2.59 µM [rising, full curve]	
CCOc1ccc(CNC(=O)CCS(=O)(=O)c2ccc3c(c2)oc(=O)n3C)cc1	7.37%	3.66 µM [rising, single point]	29.1 µM [rising, single point]
CC(CN1CCN(C)CC1)OC(=O)c1ccc(Cl)cc1 (stereo not drawn)	-40.1%	0.146 µM [falling, full curve, poor fit]	0.291 µM [falling, full curve]
